Among the data in paper PMC5039532 (Marine Drugs, 2016) are cyclisation yield values, retold here.

The series is described as follows: general procedure: peptide synthesis; 2-chlorotrityl chloride (CTC) resin (1.05 mmol/g); DEPBT/DIPEA; PyBOP/DIPEA for macrocyclisation. The settings on record: cyclisation step.
(cyclo(Phe-Leu-D-N-Me-Leu-D-Leu-D-Leu): the cyclisation yield stood at 51.7%.

Take cyclo(D-Phe-D-Leu-D-Leu-N-Me-Leu-D-Leu): the cyclisation yield was 55.5%.

In turn, cyclo(D-Phe-D-Leu-Leu-D-N-Me-Leu-Leu) came in with a cyclisation yield of 56.2%.

In turn, cyclo(D-Phe-D-Leu-Leu-N-Me-Leu-D-Leu) showed a cyclisation yield of 50.4%.

For the substance “cyclo(D-Phe-D-Leu-N-Me-Leu-D-Leu-N-Me-Leu)”, the cyclisation yield was determined as 53.9%.

“cyclo(D-Phe-D-N-Me-Leu-Leu-N-Me-Leu-Leu)” came in with a cyclisation yield of 45.5%.

cyclo(D-Phe-Leu-D-Leu-D-Leu-D-N-Me-Leu): the cyclisation yield worked out at 50.0%.

As for cyclo(D-Phe-Leu-D-Leu-Leu-N-Me-Leu), the cyclisation yield worked out at 48.5%.

For the substance cyclo(D-Phe-Leu-D-Leu-N-Me-Leu-Leu), the cyclisation yield stood at 53.1%.

On to cyclo(D-Phe-Leu-D-N-Me-Leu-Leu-D-Leu), for which the cyclisation yield is given as 53.8%.

cyclo(D-Phe-Leu-Leu-D-Leu-N-Me-Leu) came in with a cyclisation yield of 65.4%.

Consider cyclo(D-Phe-Leu-Leu-D-N-Me-Leu-Leu), for which the cyclisation yield worked out at 56.4%.

cyclo(D-Phe-Leu-Leu-N-Me-Leu-D-Leu) gave a cyclisation yield of 60.2%.

As to cyclo(D-Phe-Leu-N-Me-Leu-D-Leu-D-Leu), the cyclisation yield turned out to be 61.5%.

“cyclo(D-Phe-N-Me-Leu-Leu-Leu-D-N-Me-Leu)” came in with a cyclisation yield of 45.1%.

As for cyclo(Phe-D-Leu-D-Leu-D-Leu-N-Me-Leu), the cyclisation yield is reported as 55.1%.

As to cyclo(Phe-D-Leu-Leu-D-N-Me-Leu-Leu), the cyclisation yield turned out to be 53.3%.

Regarding cyclo(Phe-D-Leu-Leu-N-Me-Leu-Leu), the cyclisation yield is reported as 44.8%.

Regarding cyclo(Phe-D-Leu-N-Me-Leu-D-Leu-D-Leu), the cyclisation yield turned out to be 57.3%.

On to cyclo(Phe-Leu-D-Leu-N-Me-Leu-Leu), for which the cyclisation yield turned out to be 52.2%.

For cyclo(Phe-Leu-Leu-D-Leu-N-Me-Leu), the cyclisation yield came out at 46.1%.

Regarding cyclo(Phe-Leu-Leu-D-N-Me-Leu-Leu), the cyclisation yield was 49.2%.

In the case of cyclo(Phe-Leu-Leu-Leu-D-N-Me-Leu), the cyclisation yield is recorded as 66.4%.

In turn, cyclo(Phe-Leu-Leu-N-Me-Leu-D-Leu) had a cyclisation yield of 64.5%.
